In all, about 400,000 compounds went through this assay and about 13,000 (3.2%) were called active. This list was built around the results that the source calls inconclusive (neither active nor inactive); the mix of calls is not that of the screen. Calls follow the shape of the dose curve; as a rule, active = well fitted cell-killing curve with a large enough effect; inconclusive = small, poorly fitted or top-dose-only effect, or effect the other way; inactive = flat fitted curve, though single readings scatter. A potency beside an inconclusive call is a rough fit, not a confirmed value.
assay: qHTS assay for MDR1-selective chemotherapeutics: Primary screen using the drug-selected MDR subline cells KB-V1; conditions: KB-V1 MDR cells viability, CellTiter-Glo, 72 h; activity change, negative = cytotoxicity: at 46.1 µM (top of the series); also: nearly all actives have a fitted effect of over 60% in size
Method in brief: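 Cytotoxicity toward P-gp-expressing KB-V1 cells was determined as loss of CellTiter-Glo luminescence after 72 h at 37 degrees C. Compounds were tested in quantitative HTS format across a concentration range, with curves fitted to normalized data.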
% is scaled to controls: 0 for no effect and ±100 for the full control effect; potency is read from the fitted curve at half-maximal effect.

Row | SMILES | activity change, negative = cytotoxicity | Potency
1 | COc1cccc(NC(=O)c2nc(S(C)(=O)=O)ncc2Cl)c1 | inactive: -1.96% | –
2 | O=C(CCS(=O)(=O)c1ccc(Cl)cc1)N1CCCc2ccccc21 | – | inconclusive: 9.2 µM [cytotoxic, partial curve, poor fit]
3 | Cc1cc(OCC(=O)NCc2ccccn2)c2c(C)c(Cc3ccccc3)c(=O)oc2c1 | – | inconclusive: 2.59 µM [cytotoxic, full curve, poor fit]
4 | CC1(C(=O)Nc2ccc3c(c2)OCCO3)CN(S(C)(=O)=O)CC(=O)N1CCc1ccc(O)cc1 (centres undefined) | inactive: 1.1% | –
5 | CCOC(=O)Cc1cnc(NC(=O)CSc2nc(C)cc(C)n2)s1 | – | inconclusive: 16.4 µM [cytotoxic, single point]
6 | CCn1cnnc1SCC(=O)c1c(N)n(C2CC2)c(=O)[nH]c1=O | inactive: -1.09% | –
7 | Oc1cnc2ccccc2c1CN1CCOCC1 | inactive: 0% | –
8 | Cn1c(=O)oc2cc(S(=O)(=O)N3CCN(Cc4ccc5c(c4)OCO5)CC3)ccc21 | – | inconclusive: 25.1 µM [cytotoxic, single point]
9 | COc1cc(OC)c(NC(=O)CC(C)=O)cc1Cl | – | inconclusive: 29.1 µM [rising, partial curve, poor fit]
10 | Cc1nc(C(F)(F)F)ccc1C(=O)N1CCC1(C)C(=O)NS(=O)(=O)c1ccc(C(C)(C)C)cc1 (centres undefined) | inactive: 3.23% | –
11 | NC(=O)CCc1nc2cc(C(F)(F)F)ccc2n(Cc2ccccc2)c1=O | – | inconclusive: 14.6 µM [cytotoxic, partial curve, poor fit]
12 | COc1ccc(CCc2nc3ccccc3n2C(CCc2ccccc2)c2nc3ccccc3[nH]2)cc1 (centres undefined) | – | inconclusive: 4.11 µM [cytotoxic, partial curve]
13 | COc1cc(SC)ccc1C(=O)Nc1cccc(S(=O)(=O)NC2=NCCCCC2)c1 | – | inconclusive: 4.61 µM [cytotoxic, partial curve]
14 | CCS(=O)(=O)c1nc(S(=O)(=O)c2ccc(C)cc2)c(NCc2ccc(Cl)cc2)s1 | inactive: -0.968% | –
15 | CCOc1ccc(N(CC)S(=O)(=O)N2CCCC(C(=O)Nc3ccc(NC(C)=O)cc3)C2)cc1 (centres undefined) | inactive: 11.7% | –
16 | CNC(=S)N/N=C/c1ccc(-c2ccc(C(=O)O)cc2)o1 | – | active: 6.51 µM
17 | O=C(c1ccc(N2CCCC2)c([N+](=O)[O-])c1)N1CCN(S(=O)(=O)c2ccc(Cl)cc2)CC1 | – | inconclusive: 2.31 µM [cytotoxic, full curve]
18 | O=C(C[C@@H]1C/C=C\C[C@H](NC(=O)OCC2c3ccccc3-c3ccccc32)C(=O)OC[C@@H]2CCCN2C1=O)NCCO | – | inconclusive: 16.4 µM [rising, single point]
19 | Cc1ccccc1/C=C\c1nc2ccccc2c(=O)n1Cc1ccccc1 | – | inconclusive: 20.6 µM [cytotoxic, single point]
20 | O=C(COc1ccc(Br)cc1)OCC(=O)c1ccc[nH]1 | – | inconclusive: 6.51 µM [rising, partial curve, poor fit]
21 | Cc1csc(CNc2ncnc3ccc(-c4ccoc4)cc23)c1 | inactive: 25.7% | –
22 | COc1ccc(C2c3ccc4ccccc4c3Oc3ncn(CCN4CCOCC4)c(=N)c32)cc1 (centres undefined) | – | inconclusive: 20.6 µM [cytotoxic, single point]
23 | COc1ccc(-c2nn3c(-c4cc(-c5ccccc5)n[nH]4)nnc3s2)cc1OC | inactive: 19.5% | –

Row | SMILES | activity change, negative = cytotoxicity | Potency
24 | COc1ccc(Cl)cc1NC(=O)CNC(c1ccccc1)c1ccccc1 | – | active: 14.6 µM
25 | COc1cccc(CN(C)CC(=O)NCc2ccc(F)cc2)c1OC | inactive: -8.13% | –
26 | CN(C)c1ccc(N=Nc2ccccc2C(=O)O)cc1 | – | inconclusive: 29.1 µM [cytotoxic, single point]
27 | COc1ccc(-c2nc(NC(=O)c3c(C)noc3C)sc2C)cc1 | – | inconclusive: 5.17 µM [cytotoxic, partial curve]
28 | Cc1ccc(-c2cc(C(=O)N/N=C/c3ccc([N+](=O)[O-])o3)c3ccccc3n2)o1 | – | inconclusive: 18.4 µM [cytotoxic, single point]
29 | COc1ccc(C2c3ccc4ccccc4c3Oc3ncn(CCCO)c(=N)c32)cc1OC (centres undefined) | – | inconclusive: 20.6 µM [cytotoxic, single point]
30 | CC(=O)c1c(C)oc2ccc(NS(=O)(=O)c3ccc(C(C)C)cc3)cc12 | – | inconclusive: 29.1 µM [cytotoxic, single point]
31 | O=S(=O)(c1ccccc1)N1N=C(c2ccc(O)cc2)CC1c1ccco1 (centres undefined) | inactive: -1.82% | –
32 | COc1cc(/C=C/C(=O)OCC(=O)NC2CCCCCCC2)ccc1O | – | inconclusive: 29.1 µM [cytotoxic, single point]
33 | COc1cc(N(C)C)ccc1[C@]1(O)C(=O)N(C)c2ccc(Br)cc21 | – | inconclusive: 25.9 µM [cytotoxic, single point]
34 | CCCC(O)(c1ccc(Cl)cc1)C(CN1CCOCC1)c1ccccc1 (centres undefined) | inactive: -10.9% | –
35 | COc1ccc(C(O)c2ncc(-c3ccccc3C)[nH]2)cc1F (centres undefined) | inactive: -11.1% | –
36 | O=c1c2sccc2nc(SCc2cc(=O)n3ccccc3n2)n1-c1ccc(Br)cc1 | – | inconclusive: 29.1 µM [cytotoxic, single point]
37 | COCC(C)NC(=O)CSc1nc2ccccc2c(=O)n1CCc1ccc(S(N)(=O)=O)cc1 (centres undefined) | – | inconclusive: 3.66 µM [rising, full curve]
38 | CCCNC(=O)/C=C/C(=O)O | – | inconclusive: 10.3 µM [rising, partial curve]
39 | Cc1cc2nc3c(c(=O)n2[nH]1)CCCC3 | – | inconclusive: 6.51 µM [rising, partial curve, poor fit]
40 | COc1ccc(C2=NN3C(C2)c2ccccc2OC3c2cccs2)cc1 (centres undefined) | – | inconclusive: 29.1 µM [cytotoxic, single point]
41 | Cc1ccccc1OCC(=O)Nc1nc(-c2ccncc2)cs1 | – | active: 14.6 µM
42 | NC(=O)c1ncc(C(F)(F)F)cc1Oc1cccnc1 | – | inconclusive: 29.1 µM [rising, single point]
43 | CC(C)C1C(=O)N(Cc2cn(Cc3ccco3)nn2)CCS(=O)(=O)N1Cc1ccc(-c2ccc(Cl)cc2)cc1 (centres undefined) | – | inconclusive: 29.1 µM [cytotoxic, single point]
44 | COc1ccccc1-c1c(C#N)c(N)nc2c1CCc1ccccc1-2 | – | active: 16.4 µM
45 | CC1CCc2nc(NC(=O)c3ccco3)sc2C1 (centres undefined) | – | inconclusive: 20.6 µM [cytotoxic, single point]
46 | COc1ccc(OCC(=O)NCc2ccc(Cl)cc2)cc1 | – | inconclusive: 20.6 µM [rising, single point]

Row | SMILES | activity change, negative = cytotoxicity | Potency
47 | Cc1ccc(-c2cc(C(F)F)nc(NCc3cccs3)n2)cc1 | – | inconclusive: 23.1 µM [cytotoxic, single point]
48 | CCCC[C@@H]1CNC(=O)C(=O)N1CCc1cc(C(F)(F)F)cc(C(F)(F)F)c1 | – | inconclusive: 29.1 µM [rising, single point]
49 | Cc1ccc(Oc2nc3c(c(=O)n(Cc4ccccc4Cl)c(=O)n3C)n2C)cc1C | inactive: -3.99% | –
50 | COc1ccc(OC)c(S(=O)(=O)Nc2ccc3oc(C)c(C(C)=O)c3c2)c1 | – | inconclusive: 13 µM [cytotoxic, partial curve]
51 | CCC(c1ccccc1)c1noc(CCN(CC)CC)n1 (centres undefined) | inactive: 8.76% | –
52 | Cc1cc(S(=O)(=O)n2ccnc2C(C)C)cc([N+](=O)[O-])c1C | inactive: 4.94% | –
53 | CCCNc1ccc(-c2nc(-c3ccco3)no2)cc1[N+](=O)[O-] | – | inconclusive: 29.1 µM [rising, single point]
54 | CCOc1ccccc1/C=C(/NC(=O)c1ccccc1)C(=O)NCC(=O)O | – | inconclusive: 20.6 µM [rising, single point]
55 | c1ccc(-c2ccc(-c3cn4c(n3)CCC4)cc2)cc1 | – | inconclusive: 20.6 µM [cytotoxic, single point]
56 | CC(C)(C)CC(C)(C)N=C1Nc2ccc(Cl)cc2NC12C[C@H]1CCC(=O)N3CC[C@@H](C2)[C@@H]13 (some centres undefined) | – | inconclusive: 16.4 µM [cytotoxic, single point]
57 | CC[n+]1ccnc2ccccc21 | – | inconclusive: 20.6 µM [cytotoxic, single point]
58 | Cn1c(=O)n(CCOc2ccc([N+](=O)[O-])cc2)c2ccccc21 | – | inconclusive: 20.6 µM [cytotoxic, single point]
59 | CCOC(=O)c1[nH]c2ccccc2c1NC(=O)c1ccccc1OC | inactive: -10.6% | –
60 | COc1ccc(C=O)cc1CSc1ncccc1C(=O)O | – | inconclusive: 16.4 µM [rising, partial curve]
61 | Cn1c(C(C#N)/C(=N\S(=O)(=O)c2cccs2)c2ccccc2)nc2ccccc21 (centres undefined) | – | inconclusive: 23.1 µM [cytotoxic, partial curve]
62 | COc1cc(C(=O)NNC(=O)Cc2ccc(S(=O)(=O)N3CCOCC3)s2)cc(OC)c1OC | inactive: 5.85% | –
63 | Fc1ccccc1CNC(=S)Nc1cccc(C(F)(F)F)c1 | – | inconclusive: 29.1 µM [cytotoxic, single point]
64 | COc1ccc(OC)c(C2=CC(=O)C[C@H](c3ccc4c(c3)OCO4)C2)c1 | – | inconclusive: 18.4 µM [cytotoxic, partial curve, poor fit]
65 | Cc1cccc(NC(=O)CCCC(=O)OC(C)C(=O)c2ccccc2)c1 (centres undefined) | inactive: 1.39% | –
66 | COc1cc(CNCCc2ccccc2)cc(Br)c1OCC(=O)Nc1ccccc1C | – | inconclusive: 4.61 µM [cytotoxic, partial curve]
67 | O=C(Nc1ccc(N2CCCC2)c(Cl)c1)c1ccc([N+](=O)[O-])cc1 | inactive: 10.5% | –
68 | CCc1ccc(C2=NN(c3ccc(S(N)(=O)=O)cc3)C(c3ccc(F)cc3)C2)cc1 (centres undefined) | – | inconclusive: 18.4 µM [cytotoxic, single point]
69 | COc1ccccc1-n1c(SCC(=O)O)nc2c(sc(=S)n2-c2ccc(C)c(C)c2)c1=O | – | inconclusive: 9.2 µM [rising, partial curve]

Single records, from the list above. Order of values: activity change, negative = cytotoxicity	Potency
Cc1ccc(-c2cc(C(F)F)nc(NCc3cccs3)n2)cc1 is entered as –	inconclusive: 23.1 µM [cytotoxic, single point]
COc1cc(C(=O)NNC(=O)Cc2ccc(S(=O)(=O)N3CCOCC3)s2)cc(OC)c1OC is entered as inactive: 5.85%	–
Cc1cc(S(=O)(=O)n2ccnc2C(C)C)cc([N+](=O)[O-])c1C is entered as inactive: 4.94%	–
c1ccc(-c2ccc(-c3cn4c(n3)CCC4)cc2)cc1 is entered as –	inconclusive: 20.6 µM [cytotoxic, single point]

— PubChem BioAssay AID1347076 (National Center for Advancing Translational Sciences (NCATS), 2019)
